Earlier results in patent US12179232B2 (priority 2020, dated 2024).
Some of these results come from one statement about several compounds together.

Test system: coronaviruses
Details: 62-71% ethanol, 0.5% hydrogen peroxide or 0.1% sodium hypochlorite

With `OCl` [sodium hypochlorite] as the molecule, how does the “time within which a surface is efficiently inactivated by surface disinfection” value read?
The value was at most 1 min.
